Measurements reported in PubChem BioAssay AID602196 (INSERM, 2012).
Test: 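Modifiers of cisplatin sensitivity in A549 cells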. Cells: human A549 lung cancer cells. Reagent: siRNA pair against human genes. Duration: 48 h transfection before cisplatin; time from cisplatin to read-out not stated. Challenge: cisplatin at a dose killing half of control-siRNA cells; exact dose and duration not given. Read-out: 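Cisplatin cell death as a shift from the 50% death seen with control siRNA; siRNAs toxic or growth-blocking alone scored 0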. Scale: two-siRNA summed score (-2 to +2): higher = both siRNAs protect from cisplatin killing; -2 means both sensitise; mean protection from cisplatin (shift in death) and protection from cisplatin (shift in death), siRNA C and protection from cisplatin (shift in death), siRNA D: higher = protection from cisplatin killing. Call rule: 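Each siRNA scores 0 if harmful alone by LDH or WST-1, otherwise +1 if it reduces and -1 if it increases cisplatin killing; a gene is active when both siRNAs agree (sum +2 or -2)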. Calls: active = both siRNAs shift cisplatin killing the same way; inactive = no consistent shift, or siRNA harmful alone.
In all, the deposit lists about 23,000 reagents; below is a part drawn at random. 455 of all reagents (2%) count as active. 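Active includes both protection and sensitisation; some change values fall well beyond the stated -50 to +50 range.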 A number with no mark means an inactive call. Not given: the amount of reagent.

target gene,two-siRNA summed score (-2 to +2),mean protection from cisplatin (shift in death) (%),"protection from cisplatin (shift in death), siRNA C (%)","protection from cisplatin (shift in death), siRNA D (%)"
TCF12 (transcription factor 12),0,-9.2,-7.8,-10.6
LOC390281,0,25.9,5.1,46.7
PAGR1 (PAXIP1 associated glutamate rich protein 1),0,8.3,9.1,7.5
EIF4E (eukaryotic translation initiation factor 4E),0,8.7,10.6,6.7
SACK1A (scaffolding CK1 anchoring protein A),0,8.4,-2.5,19.3
ELOA (elongin A),0,0.7,2.8,-1.3
TRIM21 (tripartite motif containing 21),0,22.4,8.5,36.2
BSPRY (B-box and SPRY domain containing),0,5,1.4,8.5
GRPR (gastrin releasing peptide receptor),-1,-4.1,6,-14.2
SERPINB3 (serpin family B member 3),0,4.3,-3.6,12.1
PRDM15 (PR/SET domain 15),0,-3.7,5,-12.4
SEMG1 (semenogelin 1),1,4.3,-11.4,20
LOC389907,0,3.3,4.6,2
SLC8A2,0,-1.1,-10.7,8.4
REEP6 (receptor accessory protein 6),1,6.6,12,1.2
GTF2IP20 (general transcription factor IIi pseudogene 20),0,0.8,-0.2,1.8
TNRC6C (trinucleotide repeat containing adaptor 6C),0,-7.8,-9.8,-5.8
MRPL27 (mitochondrial ribosomal protein L27),0,23.7,11.2,36.2
CDK2AP2 (cyclin dependent kinase 2 associated protein 2),0,7.1,4.6,9.6
TFIP11 (tuftelin interacting protein 11),0,8.7,0.7,16.7
GPR65 (G protein-coupled receptor 65),0,1.7,-3.5,6.9
IL11RA (interleukin 11 receptor subunit alpha),0,6.6,12.1,1
LOC158381,0,3.4,0.6,6.1
GPRACR (GPR107 adjacent cis regulating lncRNA),-1,-3.5,11.2,-18.2
SNTG2 (syntrophin gamma 2),0,5.5,7.9,3.1
GOLPH3 (golgi phosphoprotein 3),0,1.4,5.6,-2.9
PDXP (pyridoxal phosphatase),0,5.8,-2.2,13.8
"CYP2B7P (cytochrome P450 family 2 subfamily B member 7, pseudogene)",-1,-9.1,-4.9,-13.3
SMG5 (SMG5 nonsense mediated mRNA decay factor),0,7.2,0.9,13.5
LOC391598,1,15.3,14.7,15.8
OR6C65 (olfactory receptor family 6 subfamily C member 65),0,11.3,10.4,12.2
C14orf180 (chromosome 14 open reading frame 180),1,14.1,15.7,12.5
RPP38 (ribonuclease P/MRP subunit p38),-1,-16.6,-0.2,-32.9
ZAP70 (zeta chain of T cell receptor associated protein kinase 70),0,-2.8,1.3,-6.8
COL15A1 (collagen type XV alpha 1 chain),0,7.2,28.1,-13.7
LOC440427,0,11.6,14.5,8.8
ZNF256 (zinc finger protein 256),0,8.6,13.1,4
SLC9A7,2 (active),25.7,24,27.4
MED21 (mediator complex subunit 21),-1,-4.9,9,-18.8
GRK3 (G protein-coupled receptor kinase 3),0,15.3,0.4,30.2
CCDC92 (coiled-coil domain containing 92),0,2,5.2,-1.3
LOC285026,0,10.9,7.2,14.6
RBM12 (RNA binding motif protein 12),0,0.7,4.4,-3.1
TIMP4 (TIMP metallopeptidase inhibitor 4),0,3.3,-4.6,11.2
MS4A12 (membrane spanning 4-domains A12),0,0.5,-8.6,9.5
PSD2 (pleckstrin and Sec7 domain containing 2),1,16.6,11.6,21.7
SNRNP27 (small nuclear ribonucleoprotein U4/U6.U5 subunit 27),1,5,7.3,2.7
TEX28 (testis expressed 28),1,21.1,18.2,23.9
PLXDC1 (plexin domain containing 1),-1,-17.1,-20.8,-13.5
EIF4EBP2,0,3,0.5,5.5
BEX2 (brain expressed X-linked 2),1,2.7,-6.1,11.5
LOC285435,1,9.9,19.4,0.3
LOC196337,1,17.6,13.7,21.5
LOC388586,1,15.8,0.8,30.8
LOC400388,1,12.2,24.3,0.1
LOC388291,-1,-5.6,14.6,-25.9
AXIN2 (axin 2),0,-4.4,5.6,-14.4
